The values that follow come from article PMC12001207 (The FEBS journal, 2025).

Results are given in words; binding and its absence hold for the method and conditions named. Binding seen in cells or lysates may run through a third protein. For some assays here: A result given as binding can be weak or reduced; the word gives no strength.

The target in test [1] is T1, SUCNR1-mVenus (human) (UniProt Q9BXA5).
T1 sequence: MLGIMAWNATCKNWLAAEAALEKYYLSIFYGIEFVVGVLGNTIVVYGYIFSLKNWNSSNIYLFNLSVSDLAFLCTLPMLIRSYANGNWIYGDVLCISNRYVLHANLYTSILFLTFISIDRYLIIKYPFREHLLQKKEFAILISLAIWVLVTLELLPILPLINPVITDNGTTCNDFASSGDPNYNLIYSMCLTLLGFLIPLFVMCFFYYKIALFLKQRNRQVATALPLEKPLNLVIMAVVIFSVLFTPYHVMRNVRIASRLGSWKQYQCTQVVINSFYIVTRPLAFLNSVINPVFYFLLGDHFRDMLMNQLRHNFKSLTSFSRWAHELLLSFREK
Briefly: condition: only stimulated with 100 μM compound 31 instead of SUC or CES; FRET or BRET; living HEK293-T cells co-transfected with SUCNR1-mVenus and arrestin-3-Nluc; stimulated with 100 μM compound 31.

Test [2] concerns the target T1, SUCNR1-mVenus (human). Description: FRET or BRET; living HEK293-T cells co-transfected with SUCNR1-mVenus and arrestin-3-Nluc; stimulated with 100 or 200 μM succinate (SUC) or cis-epoxysuccinate (CES); with or without 30 min pre-incubation with 100 nM NF56-EJ40; PBS with glucose or glutamine; BRET ratio = acceptor emission/donor emission.

For arrestin-3-Nluc, the figures for the binding entry in the test with SUCNR1-mVenus (human) [1] and with SUCNR1-mVenus (human) [2] were “no binding” and “binds”, respectively.
